Test results taken from PMC6098020.
Results are given in words; binding and its absence hold for the method and conditions named. In cells and extracts the contact can be indirect. Here binding means that the protein was enriched with, or labelled near, the bait; the list need not be complete.

By UniProt entry, the sequences of proteins in these tests, tags left out.
UniProt Q3SXY8: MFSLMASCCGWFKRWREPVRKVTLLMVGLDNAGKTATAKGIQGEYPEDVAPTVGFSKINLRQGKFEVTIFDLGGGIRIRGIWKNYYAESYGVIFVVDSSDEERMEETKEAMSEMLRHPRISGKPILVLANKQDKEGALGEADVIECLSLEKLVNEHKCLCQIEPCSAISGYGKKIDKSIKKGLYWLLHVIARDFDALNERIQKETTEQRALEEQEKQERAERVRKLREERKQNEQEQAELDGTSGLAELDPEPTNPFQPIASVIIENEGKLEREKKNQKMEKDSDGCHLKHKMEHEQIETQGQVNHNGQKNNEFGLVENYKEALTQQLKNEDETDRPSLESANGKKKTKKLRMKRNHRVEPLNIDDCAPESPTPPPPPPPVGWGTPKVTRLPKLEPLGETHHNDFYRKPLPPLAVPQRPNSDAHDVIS
UniProt P36405: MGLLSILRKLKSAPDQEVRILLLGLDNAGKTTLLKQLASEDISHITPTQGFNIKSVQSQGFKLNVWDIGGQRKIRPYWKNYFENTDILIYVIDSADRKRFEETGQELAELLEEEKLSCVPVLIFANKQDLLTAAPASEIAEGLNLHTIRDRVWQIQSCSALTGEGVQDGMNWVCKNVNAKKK
UniProt P35579: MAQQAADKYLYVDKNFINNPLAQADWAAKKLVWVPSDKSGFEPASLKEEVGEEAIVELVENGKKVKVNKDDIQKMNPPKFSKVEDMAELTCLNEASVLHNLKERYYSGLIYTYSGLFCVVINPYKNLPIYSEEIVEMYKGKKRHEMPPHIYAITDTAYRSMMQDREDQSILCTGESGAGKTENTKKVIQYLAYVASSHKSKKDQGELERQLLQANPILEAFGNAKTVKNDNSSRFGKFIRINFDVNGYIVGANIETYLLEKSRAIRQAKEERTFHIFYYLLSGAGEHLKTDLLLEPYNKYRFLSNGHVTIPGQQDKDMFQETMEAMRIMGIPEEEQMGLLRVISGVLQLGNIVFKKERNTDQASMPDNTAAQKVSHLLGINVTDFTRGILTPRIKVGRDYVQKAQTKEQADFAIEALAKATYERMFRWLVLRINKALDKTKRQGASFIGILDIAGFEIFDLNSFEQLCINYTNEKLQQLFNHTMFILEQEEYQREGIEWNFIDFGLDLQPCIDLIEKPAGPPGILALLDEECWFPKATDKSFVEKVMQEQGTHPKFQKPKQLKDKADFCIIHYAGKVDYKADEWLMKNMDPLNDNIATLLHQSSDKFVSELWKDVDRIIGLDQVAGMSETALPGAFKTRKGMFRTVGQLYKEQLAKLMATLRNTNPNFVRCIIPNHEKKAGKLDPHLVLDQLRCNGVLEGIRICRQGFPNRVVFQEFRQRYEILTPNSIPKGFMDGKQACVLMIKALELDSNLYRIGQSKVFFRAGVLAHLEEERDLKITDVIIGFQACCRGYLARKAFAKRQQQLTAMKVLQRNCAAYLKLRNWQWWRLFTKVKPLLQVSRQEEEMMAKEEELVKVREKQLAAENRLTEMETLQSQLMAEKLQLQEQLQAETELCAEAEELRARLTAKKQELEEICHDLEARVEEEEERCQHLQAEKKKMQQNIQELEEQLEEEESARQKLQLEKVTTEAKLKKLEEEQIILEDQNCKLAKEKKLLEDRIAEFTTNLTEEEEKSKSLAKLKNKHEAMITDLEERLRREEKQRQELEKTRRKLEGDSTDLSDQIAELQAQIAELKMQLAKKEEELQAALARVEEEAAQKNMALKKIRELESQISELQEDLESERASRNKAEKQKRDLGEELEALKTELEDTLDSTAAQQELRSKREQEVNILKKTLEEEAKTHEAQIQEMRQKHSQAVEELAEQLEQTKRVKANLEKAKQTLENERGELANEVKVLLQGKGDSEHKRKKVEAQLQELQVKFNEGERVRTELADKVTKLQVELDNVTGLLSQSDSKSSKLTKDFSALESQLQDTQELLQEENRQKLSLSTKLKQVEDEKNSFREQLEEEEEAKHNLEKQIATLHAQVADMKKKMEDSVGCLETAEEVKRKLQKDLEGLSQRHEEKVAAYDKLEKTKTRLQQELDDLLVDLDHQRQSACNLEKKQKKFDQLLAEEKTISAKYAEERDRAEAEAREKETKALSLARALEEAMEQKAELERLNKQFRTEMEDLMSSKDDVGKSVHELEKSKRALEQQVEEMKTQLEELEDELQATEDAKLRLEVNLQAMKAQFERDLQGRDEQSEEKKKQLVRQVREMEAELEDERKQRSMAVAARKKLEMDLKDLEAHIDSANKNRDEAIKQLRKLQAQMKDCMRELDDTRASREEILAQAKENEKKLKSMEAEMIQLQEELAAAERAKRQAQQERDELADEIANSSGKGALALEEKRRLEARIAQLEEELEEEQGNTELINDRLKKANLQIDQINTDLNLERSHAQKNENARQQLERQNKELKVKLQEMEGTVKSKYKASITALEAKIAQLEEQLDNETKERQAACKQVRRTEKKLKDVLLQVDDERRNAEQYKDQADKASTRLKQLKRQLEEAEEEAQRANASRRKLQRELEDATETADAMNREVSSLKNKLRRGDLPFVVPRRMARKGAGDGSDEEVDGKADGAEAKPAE
UniProt P63279: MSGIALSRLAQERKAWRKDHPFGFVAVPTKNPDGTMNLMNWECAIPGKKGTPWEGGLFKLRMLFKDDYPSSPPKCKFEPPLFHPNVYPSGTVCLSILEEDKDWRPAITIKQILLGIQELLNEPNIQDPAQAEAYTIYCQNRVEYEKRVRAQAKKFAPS

Target: HA-BirA-tagged ARL13B (human) (UniProt Q3SXY8)
Assay: proximity labelling; Bio-ID: HA-BirA-ARL13B stable RCTE cells against HA-BirA cells, serum-free medium with biotin for 24 h, streptavidin beads, gel bands to mass spectrometry

binding | Molecule
binds | IFT74 (protein, UniProt Q96LB3 1-600) MASNHKSSAARPVSRGGVGLTGRPPSGIRPLSGNIRVATAMPPGTARPGSRGCPIGTGGVLSSQIKVAHRPVTQQGLTGMKTGTKGPQRQILDKSYYLGLLRSKISELTTEVNKLQKGIEMYNQENSVYLSYEKRAETLAVEIKELQGQLADYNMLVDKLNTNTEMEEVMNDYNMLKAQNDRETQSLDVIFTERQAKEKQIRSVEEEIEQEKQATDDIIKNMSFENQVKYLEMKTTNEKLLQELDTLQQQLDSQNMKKESLEAEIAHSQVKQEAVLLHEKLYELESHRDQMIAEDKSIGSPMEEREKLLKQIKDDNQEIASMERQLTDTKEKINQFIEEIRQLDMDLEEHQGEMNQKYKELKKREEHMDTFIETFEETKNQELKRKAQIEANIVALLEHCSRNINRIEQISSITNQELKMMQDDLNFKSTEVQKSQSTAQNLTSDIQRLQLDLQKMELLESKMTEEQHSLKSKIKQMTTDLEIYNDLPALKSSGEEKIKKLHQERMILSTHRNAFKKIMEKQNIEYEALKTQLQENETHSQLTNLERKWQHLEQNNFAMKEFIATKSQESDYQPIKKNVTKQIAEYNKTIVDALHSTSGN
binds | TULP3 (protein, UniProt O75386 1-442) MEASRCRLSPSGDSVFHEEMMKMRQAKLDYQRLLLEKRQRKKRLEPFMVQPNPEARLRRAKPRASDEQTPLVNCHTPHSNVILHGIDGPAAVLKPDEVHAPSVSSSVVEEDAENTVDTASKPGLQERLQKHDISESVNFDEETDGISQSACLERPNSASSQNSTDTGTSGSATAAQPADNLLGDIDDLEDFVYSPAPQGVTVRCRIIRDKRGMDRGLFPTYYMYLEKEENQKIFLLAARKRKKSKTANYLISIDPVDLSREGESYVGKLRSNLMGTKFTVYDRGICPMKGRGLVGAAHTRQELAAISYETNVLGFKGPRKMSVIIPGMTLNHKQIPYQPQNNHDSLLSRWQNRTMENLVELHNKAPVWNSDTQSYVLNFRGRVTQASVKNFQIVHKNDPDYIVMQFGRVADDVFTLDYNYPLCAVQAFGIGLSSFDSKLACE
binds | RAB11FIP5 (protein, UniProt Q9BXF6 1-653) MALVRGAEPAAGPSRWLPTHVQVTVLRARGLRGKSSGAGSTSDAYTVIQVGREKYSTSVVEKTHGCPEWREECSFELPPGALDGLLRAQEADAGPAPWAASSAAACELVLTTMHRSLIGVDKFLGQATVALDEVFGAGRAQHTQWYKLHSKPGKKEKERGEIEVTIQFTRNNLSASMFDLSMKDKPRSPFSKIRDKMKGKKKYDLESASAILPSSAIEDPDLGSLGKMGKAKGFFLRNKLRKSSLTQSNTSLGSDSTLSSASGSLAYQGPGAELLTRSPSRSSWLSTEGGRDSAQSPKLFTHKRTYSDEANQMRVAPPRALLDLQGHLDAASRSSLCVNGSHIYNEEPQGPVRHRSSISGSLPSSGSLQAVSSRFSEEGPRSTDDTWPRGSRSNSSSEAVLGQEELSAQAKVLAPGASHPGEEEGARLPEGKPVQVATPIVASSEAVAEKEGARKEERKPRMGLFHHHHQGLSRSELGRRSSLGEKGGPILGASPHHSSSGEEKAKSSWFGLREAKDPTQKPSPHPVKPLSAAPVEGSPDRKQSRSSLSIALSSGLEKLKTVTSGSIQPVTQAPQAGQMVDTKRLKDSAVLDQSAKYYHLTHDELISLLLQRERELSQRDEHVQELESYIDRLLVRIMETSPTLLQIPPGPPK

Target: HA-BirA-tagged ARL13B (human) (UniProt Q3SXY8)
Assay: as above
Remark: another data set of the same source

binding | Molecule
binds | ARL3 (from UniProt P36405 1-182)
binds | Myh9 (from UniProt P35579 1-1960)
binds | UBC9 (from UniProt P63279 1-158)
